From PubChem BioAssay AID330 (DTP/NCI, 2004) come the findings set out here.

The list is a part of this screen's results and no random one: it gathers tests that were run many times, whatever their T/C, doses with no T/C, and many T/C values between a quarter and a half above the control. Further doses and runs are listed elsewhere. T/C gives the treated animals as a percentage of the vehicle group. Some entries give survivors of the animals treated and no T/C: the source files T/C as zero there, which appears to mark a toxic dose or a test without result, not a measured value. Some survivor counts are full or nearly so, which does not show that the dose was tolerated: the source hardly ever lists a survival T/C far under the control, and the zero likely stands for such cases as well. Counts of survivors are from the toxicity check (mostly the fifth day) where no day follows; animals may have died later. Schedule codes are those of the source, taken here to give the interval after Q, in days (D) or hours (H), and the number of doses after X. Some entries were tested several times; the results are listed from low to high. Signs of the kind (2×) stand for listed records that agree. Where survival is the endpoint, the PubChem record calls one and a half times the control and up active, and a quarter to a half above the control has no call in these data; cut-offs in other NCI protocols can differ. Some T/C values carry the count of animals alive at the toxicity check (mostly the fifth day); without a count, all were alive then.

The assay deals with P388 leukemia ip, CD2F1 mice, survival T/C. The assay is described as follows: NCI In Vivo Anticancer Drug Screen. Data for tumor model P388 Leukemia (intraperitoneal) in CD2F1 (CDF1) mice. The settings on record: T/C endpoint: median survival time, higher T/C = longer survival.
Where [1] appears, read: dose: 12.5 mg/kg/injection, schedule: Q01DX009 (ip), vehicle: saline with Tween-80.
Setting [2] is: dose: 25.0 mg/kg/injection, schedule: Q01DX009 (ip), vehicle: saline with Tween-80.
Setting [3] is: dose: 50.0 mg/kg/injection, schedule: Q01DX009 (ip), vehicle: saline with Tween-80.
[4] abbreviates: dose: 120.0 mg/kg/injection, schedule: Q01DX005 (ip), vehicle: saline with Tween-80.
Setting [5] is: dose: 240.0 mg/kg/injection, schedule: Q01DX005 (ip), vehicle: saline with Tween-80.
Where [6] appears, read: dose: 0.09 mg/kg/injection, schedule: Q01DX005 (ip), vehicle: Klucel (hydroxypropylcellulose) (HPC).
Where [7] appears, read: dose: 0.19 mg/kg/injection, schedule: Q01DX005 (ip), vehicle: Klucel (hydroxypropylcellulose) (HPC).
The mark [8] stands for this setting: dose: 0.39 mg/kg/injection, schedule: Q01DX005 (ip), vehicle: Klucel (hydroxypropylcellulose) (HPC).
Where [9] appears, read: dose: 0.79 mg/kg/injection, schedule: Q01DX005 (ip), vehicle: Klucel (hydroxypropylcellulose) (HPC).
Setting [10] is: dose: 25.0 mg/kg/injection, schedule: Q01DX005 (ip), vehicle: Klucel (hydroxypropylcellulose) (HPC).
Setting [11] is: dose: 50.0 mg/kg/injection, schedule: Q01DX005 (ip), vehicle: Klucel (hydroxypropylcellulose) (HPC).
[12] abbreviates: dose: 100.0 mg/kg/injection, schedule: Q01DX005 (ip), vehicle: Klucel (hydroxypropylcellulose) (HPC).
The mark [13] stands for this setting: dose: 200.0 mg/kg/injection, schedule: Q01DX005 (ip), vehicle: Klucel (hydroxypropylcellulose) (HPC).

As for `NC(=O)Oc1cccc(OC(N)=O)c1`, the T/C runs as follows: (dose: 100.0 mg/kg/injection, schedule: Q04DX003 (ip), vehicle: other) 135 % of control; (dose: 400.0 mg/kg/injection, schedule: Q04DX003 (ip), vehicle: other) 135 % of control. Further, the survivor count (dose: 400.0 mg/kg/injection, schedule: Q01DX009 (ip), vehicle: other) was 5 of 6.
For the compound `CCOC(=C\C=C\C1=[N+](C)c2ccccc2C1(C)C)/C=C/C=C1/N(C)c2ccccc2C1(C)C`, the survivor count is, setting by setting: (dose: 6.25 mg/kg/injection, schedule: Q01DX009 (ip), vehicle: saline with Tween-80) 3 of 6; under setting [1], 3 of 6; under setting [2], 0 of 6; under setting [3], 0 of 6.
`C=C(C)c1nc2c(=O)nc(N)nc-2n(O)c1C`: the survivor count (dose: 75.0 mg/kg/injection, schedule: Q01DX009 (ip), vehicle: saline with Tween-80) is 3 of 6.
For the compound `CCOC(=O)c1cc2c(nc1C)-c1ccccc1OC2Nc1ccccc1` (centres undefined), the survivor count reads like this: (dose: 12.5 mg/kg/injection, schedule: Q01DX005 (ip), vehicle: saline with Tween-80) 6 of 6; (dose: 25.0 mg/kg/injection, schedule: Q01DX005 (ip), vehicle: saline with Tween-80) 6 of 6; (dose: 200.0 mg/kg/injection, schedule: Q01DX001 (ip), vehicle: saline with Tween-80) 6 of 6; (dose: 400.0 mg/kg/injection, schedule: Q01DX001 (ip), vehicle: saline with Tween-80) 6 of 6.
As for `Fc1ccc(F)c(C(Nc2nncs2)Nc2nncs2)c1`, the T/C under setting [4] was 126 % of control (2×).
In the case of `O=c1[nH]nc(-c2ccc(Cl)cc2)c2c1[nH]c1ccccc12`, the survivor count under setting [5] is 3 of 6.
For the compound `CN1CCN2c3ccccc3Cc3ccccc3C2C1` (centres undefined), the survivor count was 2 of 6 and 3 of 6 (dose: 100.0 mg/kg/injection, schedule: Q01DX009 (ip), vehicle: saline); 0 of 6 (dose: 200.0 mg/kg/injection, schedule: Q01DX009 (ip), vehicle: saline).
As to `CCOc1ccc2c(ccc(/C=C\c3cc(C)c4cccnc4c3O)[n+]2C)c1`, the T/C under setting [1] was 135 % of control. The survivor count is recorded as 6 of 6 under setting [1], 4 of 6 under setting [2] and 2 of 6 under setting [3].
Take `COc1ccccc1/C(=N/[N+](C)(C)C)C(C)C`: the survivor count runs as follows: (dose: 50.0 mg/kg/injection, schedule: Q04DX002 (ip), vehicle: saline) 5 of 6; (dose: 100.0 mg/kg/injection, schedule: Q04DX002 (ip), vehicle: saline) 0 of 6; (dose: 200.0 mg/kg/injection, schedule: Q04DX002 (ip), vehicle: saline) 0 of 6.
Regarding `COc1ccc2c3c1OC1c4[nH]ncc4C[C@H]4[C@@H](C2)N(C)CC[C@]314` (some centres undefined), the survivor count (dose: 400.0 mg/kg/injection, schedule: Q04DX002 (ip), vehicle: saline with Tween-80) is 2 of 6.
In the case of `C[CH2][Sn]([Cl])([CH2]C)[c]1cc[c]([Sn]([Cl])([CH2]C)[CH2]C)cc1`, the T/C (dose: 0.04 mg/kg/injection, schedule: Q01DX005 (ip), vehicle: Klucel (hydroxypropylcellulose) (HPC)) is 149 % of control; the T/C under setting [6] was 111 [5 of 6 alive] and 150 % of control [5 of 6 alive]; the T/C under setting [7] is 114 and 139 % of control; the T/C under setting [8] was 130 % of control; the T/C under setting [9] is 125 % of control. For the same compound, the survivor count is, setting by setting: under setting [6], 0 of 6 and 2 of 6; under setting [7], 0 of 6 (2×); under setting [8], 0 of 6 (2×) and 4 of 6; under setting [9], 0 of 6 (2×); (dose: 1.56 mg/kg/injection, schedule: Q01DX005 (ip), vehicle: Klucel (hydroxypropylcellulose) (HPC)) 1 of 6; (dose: 6.25 mg/kg/injection, schedule: Q01DX005 (ip), vehicle: Klucel (hydroxypropylcellulose) (HPC)) 0 of 6. The survivor count (dose: 12.5 mg/kg/injection, schedule: Q01DX005 (ip), vehicle: Klucel (hydroxypropylcellulose) (HPC)) was 0 of 6; the survivor count under setting [10] is given as 0 of 6; the survivor count under setting [11] was 0 of 6; the survivor count under setting [12] is given as 0 of 6; the survivor count under setting [13] is given as 0 of 6.
With `Nc1cc2[nH]cnc2c(=O)[nH]1`, the T/C is 131 % of control [5 of 6 alive] under setting [2]; 142 % of control under setting [3]; 135 % of control (dose: 100.0 mg/kg/injection, schedule: Q01DX009 (ip), vehicle: Klucel (hydroxypropylcellulose) (HPC)); 136 % of control [5 of 6 alive] (dose: 100.0 mg/kg/injection, schedule: Q01DX009 (ip), vehicle: saline with Tween-80); 144 % of control (dose: 100.0 mg/kg/injection, schedule: Q01DX009 (ip), vehicle: suspension in saline). Besides, the survivor count is listed as 6 of 6 (dose: 200.0 mg/kg/injection, schedule: Q01DX009 (ip), vehicle: suspension in saline) and 4 of 6 (dose: 400.0 mg/kg/injection, schedule: Q01DX009 (ip), vehicle: suspension in saline).
As for `CN(C)CCCn1ncc(Sc2cc([N+](=O)[O-])ccc2N)c(Cl)c1=O`, the survivor count by setting is: under setting [4], 1 of 6; under setting [5], 0 of 6.
Take `CN(C)CCCN1c2ccccc2CCc2ccccc21`: under setting [5], the survivor count is 3 of 6.
For the compound `CN(C)C(=S)NCc1ccccc1`, the survivor count (dose: 400.0 mg/kg/injection, schedule: Q04DX003 (ip), vehicle: saline with Tween-80) is 2 of 6.
As for `CC1=NCCCN(CCN(C)C)CCCN=C(C)C2CCCC1[N-]2.[Ni+2].[O-][Cl+3]([O-])([O-])O`, the survivor count (dose: 50.0 mg/kg/injection, schedule: Q01DX001 (ip), vehicle: saline) was 2 of 6; the survivor count (dose: 100.0 mg/kg/injection, schedule: Q01DX001 (ip), vehicle: saline) is 0 of 6 and 1 of 6; the survivor count (dose: 200.0 mg/kg/injection, schedule: Q01DX001 (ip), vehicle: saline) is 1 of 6; the survivor count (dose: 400.0 mg/kg/injection, schedule: Q01DX001 (ip), vehicle: saline) was 0 of 6.
For `O=c1ccs[nH]1`, the survivor count by setting is: (dose: 25.0 mg/kg/injection, schedule: Q01DX009 (ip), vehicle: Klucel (hydroxypropylcellulose) (HPC)) 2 of 6; (dose: 50.0 mg/kg/injection, schedule: Q01DX009 (ip), vehicle: Klucel (hydroxypropylcellulose) (HPC)) 0 of 6.
In the case of `c1csc(-c2[nH]nc3c2CCc2ccccc2-3)c1`, for the setting “dose: 7.5 mg/kg/injection, schedule: Q01DX005 (ip), vehicle: Klucel (hydroxypropylcellulose) (HPC)”, the T/C is 125 % of control. The survivor count was 6 of 6 (dose: 15.0 mg/kg/injection, schedule: Q01DX005 (ip), vehicle: Klucel (hydroxypropylcellulose) (HPC)); 3 of 6 (dose: 30.0 mg/kg/injection, schedule: Q01DX005 (ip), vehicle: Klucel (hydroxypropylcellulose) (HPC)); 6 of 6 (dose: 60.0 mg/kg/injection, schedule: Q01DX005 (ip), vehicle: Klucel (hydroxypropylcellulose) (HPC)); 3 of 6 (dose: 120.0 mg/kg/injection, schedule: Q01DX005 (ip), vehicle: Klucel (hydroxypropylcellulose) (HPC)); 1 of 6 (dose: 240.0 mg/kg/injection, schedule: Q01DX005 (ip), vehicle: Klucel (hydroxypropylcellulose) (HPC)).
As to `[Br][Sn]([Br])([CH2][Sn]([Br])([c]1ccccc1)[c]1ccccc1)[c]1ccccc1`, the T/C runs as follows: under setting [10], 139 % of control; under setting [11], 125 % of control; under setting [12], 125 % of control [5 of 6 alive]. In addition, the survivor count was 5 of 6 under setting [11], 2 of 6 under setting [12] and 5 of 6 under setting [13].
